From publication PMC6684519 come the findings set out here.

Protein sequences, listed by entry. Tags and fused reporters are not part of them.
UniProt O95863: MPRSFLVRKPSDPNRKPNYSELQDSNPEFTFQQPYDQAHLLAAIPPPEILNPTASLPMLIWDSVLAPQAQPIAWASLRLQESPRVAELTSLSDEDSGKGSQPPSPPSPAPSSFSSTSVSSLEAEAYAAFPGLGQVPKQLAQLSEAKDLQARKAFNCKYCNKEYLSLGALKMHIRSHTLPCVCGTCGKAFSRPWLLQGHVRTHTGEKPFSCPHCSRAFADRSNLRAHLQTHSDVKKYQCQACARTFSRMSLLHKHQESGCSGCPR

The target of test [1] is Hic-5 (hydrogen peroxide inducible clone-5) (human (endogenous in HCC413)) (UniProt O43294). The test can be described thus: co-IP; IP/western analysis of endogenous proteins in HCC413; cells untreated or treated with LZ-8 (5 μg/ml).
Test [2] concerns the target Hic-5 expressed from the Hic-5 cDNA expression plasmid (p-Hic-5) (UniProt O43294). Nature of the test: co-IP; HCC340 transfected with p-Hic-5 or p-CMV vector for indicated times (24-48 h); lysates, immunoprecipitation of Hic-5 followed by western blot of indicated molecules.

No constants are given. Whether binding was seen depends on the method and setting. In cells and extracts the contact can be indirect.

Consider Snail (from UniProt O95863 1-264), for which, in test [1], the binding result was “no binding”.

B1: Zeb-1 (protein, UniProt P37275 1-1124)
chain: MADGPRCKRRKQANPRRNNVTNYNTVVETNSDSDDEDKLHIVEEESVTDAADCEGVPEDDLPTDQTVLPGRSSEREGNAKNCWEDDRKEGQEILGPEAQADEAGCTVKDDECESDAENEQNHDPNVEEFLQQQDTAVIFPEAPEEDQRQGTPEASGHDENGTPDAFSQLLTCPYCDRGYKRFTSLKEHIKYRHEKNEDNFSCSLCSYTFAYRTQLERHMTSHKSGRDQRHVTQSGCNRKFKCTECGKAFKYKHHLKEHLRIHSGEKPYECPNCKKRFSHSGSYSSHISSKKCISLIPVNGRPRTGLKTSQCSSPSLSASPGSPTRPQIRQKIENKPLQEQLSVNQIKTEPVDYEFKPIVVASGINCSTPLQNGVFTGGGPLQATSSPQGMVQAVVLPTVGLVSPISINLSDIQNVLKVAVDGNVIRQVLENNQANLASKEQETINASPIQQGGHSVISAISLPLVDQDGTTKIIINYSLEQPSQLQVVPQNLKKENPVATNSCKSEKLPEDLTVKSEKDKSFEGGVNDSTCLLCDDCPGDINALPELKHYDLKQPTQPPPLPAAEAEKPESSVSSATGDGNLSPSQPPLKNLLSLLKAYYALNAQPSAEELSKIADSVNLPLDVVKKWFEKMQAGQISVQSSEPSSPEPGKVNIPAKNNDQPQSANANEPQDSTVNLQSPLKMTNSPVLPVGSTTNGSRSSTPSPSPLNLSSSRNTQGYLYTAEGAQEEPQVEPLDLSLPKQQGELLERSTITSVYQNSVYSVQEEPLNLSCAKKEPQKDSCVTDSEPVVNVIPPSANPINIAIPTVTAQLPTIVAIADQNSVPCLRALAANKQTILIPQVAYTYSTTVSPAVQEPPLKVIQPNGNQDERQDTSSEGVSNVEDQNDSDSTPPKKKMRKTENGMYACDLCDKIFQKSSSLLRHKYEHTGKRPHECGICKKAFKHKHHLIEHMRLHSGEKPYQCDKCGKRFSHSGSYSQHMNHRYSYCKREAEERDSTEQEEAGPEILSNEHVGARASPSQGDSDERESLTREEDEDSEKEEEEEDKEMEELQEEKECEKPQGDEEEEEEEEEVEEEEVEEAENEGEEAKTEGLMKDDRAESQASSLGQKVGESSEQVSEEKTNEA
As to B1, the binding result in test [2] is given as “no binding”.
